Data set [1] deals with Munc18-1^Δ317–333 + Mint1. Kind of data set: ITC of Sx1a binding to Munc18-1 hinge-loop deletion mutant in the presence of Mint1 (261–282) peptide. The arrangement: species or system rat. As to conditions: Table 2; cell Munc18-1^Δ317–333 + Mint1. The source says:
As Mint1 binds to Munc18-1 domain 3b, we hypothesized that the perturbed Mint1 interaction on deletion of the distal domain 3a hinge-loop might be due to altered structural dynamics in the combined domain3a/3b module. […] This is in line with the ability to cocrystallize the three proteins when excess Mint1 peptide is present ([47]). […] This has potential implications for a role of Mint proteins in Munc18-1-mediated SNARE assembly, which is a tightly regulated and highly dynamic process.
For ITC, all peptides were weighed and initially dissolved in the working buffer to make a stock concentration of 2 mM. […] GST-Mint1 and all the other proteins used in the experiments were buffer exchanged into 50 mM Tris (pH 8.0) and 200 mM NaCl by gel filtration prior to ITC. […] Mint1 PTB domain binding to the APP and TJAP1 peptides was performed in 50 mM Hepes, 200 mM NaCl, 0.5 mM TCEP, and 5% glycerol at 25 °C with 1 mM peptides titrated into 50 μM Mint1 PTB domain. The binding parameters, equilibrium constant Ka (1/Kd), stoichiometry (n), and the enthalpy (ΔH) were determined by processing the ITC data using ORIGIN 7.0 software. The equation, ΔG = ΔH – TΔS, was used to calculate the Gibbs free energy (ΔG), and all the experiments were performed in triplicate or duplicate to calculate the SEM for thermodynamic parameters.

The next data set deals with Munc18-1 + Mint1. Kind of data set: ITC of Sx1a binding to Munc18-1 in the presence of Mint1 (261–282) peptide. As to conditions: Table 2; syringe Sx1a + Mint1, cell Munc18-1 + Mint1. More on the design: species or system rat.

With “Sx1a: recombinant rat Syntaxin1a (Sx1_1–261-His) expressed in E. coli”, in data set [1], the “N (stoichiometry)” value came out at 1, the ΔG is -40.2 kJ/mol and the “−TΔS” value came to 38.5 kJ/mol. In addition, in the data set on Munc18-1 + Mint1, the “N (stoichiometry)” value is on record as 1, the ΔG was -37.7 ± 1.3 kJ/mol, the ΔH is -124 ± 7.95 kJ/mol and the “−TΔS” value was 86.6 ± 10 kJ/mol.

Values taken from article PMC10820826, “Interrogation and validation of the interactome of neuronal Munc18-interacting Mint proteins with AlphaFold2” (The Journal of Biological Chemistry, 2023).
